This is one part of the list.

The chains behind the UniProt entries cited, without tags or fusion partners. Where a name states a change or a piece, a line headed by the entry shows the natural chain unless it says otherwise.
UniProt P13995: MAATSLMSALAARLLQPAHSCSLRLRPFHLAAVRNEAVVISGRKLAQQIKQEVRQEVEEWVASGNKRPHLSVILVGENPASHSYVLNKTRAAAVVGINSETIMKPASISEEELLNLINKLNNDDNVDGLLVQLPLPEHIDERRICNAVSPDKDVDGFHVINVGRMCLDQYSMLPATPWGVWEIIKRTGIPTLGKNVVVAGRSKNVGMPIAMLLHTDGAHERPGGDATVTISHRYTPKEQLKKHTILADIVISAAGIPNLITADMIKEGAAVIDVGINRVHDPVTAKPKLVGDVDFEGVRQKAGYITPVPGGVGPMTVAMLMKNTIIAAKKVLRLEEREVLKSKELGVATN
UniProt Q96DH6: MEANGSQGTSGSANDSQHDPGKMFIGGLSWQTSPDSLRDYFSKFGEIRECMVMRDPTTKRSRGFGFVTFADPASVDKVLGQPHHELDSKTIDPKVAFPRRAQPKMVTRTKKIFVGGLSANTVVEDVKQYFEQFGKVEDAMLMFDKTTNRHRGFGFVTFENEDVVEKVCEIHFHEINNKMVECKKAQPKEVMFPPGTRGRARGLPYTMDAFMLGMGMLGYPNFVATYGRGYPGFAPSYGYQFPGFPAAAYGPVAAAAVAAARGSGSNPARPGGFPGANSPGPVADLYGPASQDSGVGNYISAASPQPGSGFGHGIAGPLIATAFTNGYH
UniProt Q969V6: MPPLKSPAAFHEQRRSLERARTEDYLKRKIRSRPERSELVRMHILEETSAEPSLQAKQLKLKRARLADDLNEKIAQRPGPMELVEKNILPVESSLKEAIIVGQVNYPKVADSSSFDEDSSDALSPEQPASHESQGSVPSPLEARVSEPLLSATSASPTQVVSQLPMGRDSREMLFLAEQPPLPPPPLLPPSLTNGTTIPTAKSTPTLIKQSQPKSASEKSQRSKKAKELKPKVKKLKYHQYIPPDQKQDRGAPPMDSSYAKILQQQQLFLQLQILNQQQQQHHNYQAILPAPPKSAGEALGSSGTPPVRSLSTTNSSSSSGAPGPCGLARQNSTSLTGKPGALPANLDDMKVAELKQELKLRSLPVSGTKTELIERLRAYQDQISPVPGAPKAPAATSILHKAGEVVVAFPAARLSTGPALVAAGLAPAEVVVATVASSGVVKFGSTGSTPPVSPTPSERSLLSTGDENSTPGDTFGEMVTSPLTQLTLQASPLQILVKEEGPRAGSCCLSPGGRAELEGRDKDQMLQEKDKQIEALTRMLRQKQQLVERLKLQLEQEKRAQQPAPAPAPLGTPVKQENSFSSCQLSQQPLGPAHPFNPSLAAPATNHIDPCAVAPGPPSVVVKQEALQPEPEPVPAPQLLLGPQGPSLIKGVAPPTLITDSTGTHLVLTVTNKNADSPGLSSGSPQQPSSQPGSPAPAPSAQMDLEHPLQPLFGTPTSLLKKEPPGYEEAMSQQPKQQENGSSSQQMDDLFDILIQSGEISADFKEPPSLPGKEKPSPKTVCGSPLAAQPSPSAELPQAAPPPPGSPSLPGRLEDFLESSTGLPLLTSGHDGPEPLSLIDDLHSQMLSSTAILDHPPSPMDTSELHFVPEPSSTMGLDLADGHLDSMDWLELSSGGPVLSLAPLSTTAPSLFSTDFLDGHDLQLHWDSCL
UniProt Q9UGC7: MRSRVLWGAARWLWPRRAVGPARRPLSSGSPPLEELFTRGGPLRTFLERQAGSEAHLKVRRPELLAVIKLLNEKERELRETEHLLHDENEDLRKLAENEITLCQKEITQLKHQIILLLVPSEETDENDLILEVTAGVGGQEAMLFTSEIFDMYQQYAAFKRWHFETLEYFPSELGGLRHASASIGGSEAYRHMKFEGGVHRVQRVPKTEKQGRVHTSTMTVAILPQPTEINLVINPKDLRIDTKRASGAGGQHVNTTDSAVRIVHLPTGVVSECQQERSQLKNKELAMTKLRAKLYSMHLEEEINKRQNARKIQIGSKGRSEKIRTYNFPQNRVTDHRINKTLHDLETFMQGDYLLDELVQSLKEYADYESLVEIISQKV
UniProt Q9UM54, whole entry, looked up: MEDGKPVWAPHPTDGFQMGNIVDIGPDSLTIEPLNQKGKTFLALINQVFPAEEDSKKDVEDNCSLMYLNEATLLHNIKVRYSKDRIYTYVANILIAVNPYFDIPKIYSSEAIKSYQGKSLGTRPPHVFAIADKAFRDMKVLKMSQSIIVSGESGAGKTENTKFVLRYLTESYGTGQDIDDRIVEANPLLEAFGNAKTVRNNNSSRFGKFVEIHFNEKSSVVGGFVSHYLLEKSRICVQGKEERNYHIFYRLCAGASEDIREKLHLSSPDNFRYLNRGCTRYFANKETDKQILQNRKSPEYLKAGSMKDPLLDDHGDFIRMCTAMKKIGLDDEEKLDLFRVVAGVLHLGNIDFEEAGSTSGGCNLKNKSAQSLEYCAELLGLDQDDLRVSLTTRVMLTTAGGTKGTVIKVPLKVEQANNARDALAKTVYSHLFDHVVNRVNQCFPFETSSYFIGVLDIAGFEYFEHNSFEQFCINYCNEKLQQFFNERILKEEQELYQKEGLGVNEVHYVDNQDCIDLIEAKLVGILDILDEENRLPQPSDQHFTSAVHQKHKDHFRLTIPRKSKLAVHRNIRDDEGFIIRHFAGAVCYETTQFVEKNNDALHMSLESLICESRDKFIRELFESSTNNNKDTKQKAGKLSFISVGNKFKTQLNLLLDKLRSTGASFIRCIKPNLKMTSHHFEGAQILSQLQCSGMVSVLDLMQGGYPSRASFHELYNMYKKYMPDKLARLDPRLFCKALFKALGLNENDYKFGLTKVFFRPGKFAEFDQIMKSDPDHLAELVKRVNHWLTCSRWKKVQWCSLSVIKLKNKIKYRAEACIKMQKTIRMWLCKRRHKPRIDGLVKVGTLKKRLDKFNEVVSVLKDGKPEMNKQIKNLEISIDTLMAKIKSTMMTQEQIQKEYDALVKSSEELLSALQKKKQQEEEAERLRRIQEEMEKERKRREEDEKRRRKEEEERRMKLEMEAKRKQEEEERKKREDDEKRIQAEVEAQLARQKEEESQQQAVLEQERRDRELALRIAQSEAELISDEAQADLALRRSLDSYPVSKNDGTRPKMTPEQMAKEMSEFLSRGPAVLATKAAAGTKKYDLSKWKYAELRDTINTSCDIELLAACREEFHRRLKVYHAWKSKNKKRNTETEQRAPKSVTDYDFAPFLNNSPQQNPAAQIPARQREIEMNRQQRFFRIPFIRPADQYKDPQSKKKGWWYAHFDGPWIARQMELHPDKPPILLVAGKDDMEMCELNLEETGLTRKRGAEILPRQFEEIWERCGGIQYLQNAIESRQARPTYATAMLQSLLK
UniProt O43347: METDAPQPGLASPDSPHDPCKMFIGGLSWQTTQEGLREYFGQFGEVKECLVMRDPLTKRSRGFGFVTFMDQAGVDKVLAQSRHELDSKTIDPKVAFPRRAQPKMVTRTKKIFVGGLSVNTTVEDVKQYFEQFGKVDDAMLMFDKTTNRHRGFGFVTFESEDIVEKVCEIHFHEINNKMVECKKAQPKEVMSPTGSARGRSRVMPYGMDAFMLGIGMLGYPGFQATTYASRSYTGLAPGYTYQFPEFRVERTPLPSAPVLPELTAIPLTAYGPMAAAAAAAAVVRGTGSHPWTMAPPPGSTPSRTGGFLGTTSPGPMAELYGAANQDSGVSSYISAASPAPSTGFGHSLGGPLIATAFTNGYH
UniProt P03923, whole entry, looked up: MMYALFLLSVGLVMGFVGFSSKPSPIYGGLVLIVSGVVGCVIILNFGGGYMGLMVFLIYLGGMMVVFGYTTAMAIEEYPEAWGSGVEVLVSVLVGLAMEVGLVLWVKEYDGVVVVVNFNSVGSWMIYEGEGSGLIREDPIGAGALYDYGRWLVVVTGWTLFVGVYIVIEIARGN
UniProt Q13614, whole entry, looked up: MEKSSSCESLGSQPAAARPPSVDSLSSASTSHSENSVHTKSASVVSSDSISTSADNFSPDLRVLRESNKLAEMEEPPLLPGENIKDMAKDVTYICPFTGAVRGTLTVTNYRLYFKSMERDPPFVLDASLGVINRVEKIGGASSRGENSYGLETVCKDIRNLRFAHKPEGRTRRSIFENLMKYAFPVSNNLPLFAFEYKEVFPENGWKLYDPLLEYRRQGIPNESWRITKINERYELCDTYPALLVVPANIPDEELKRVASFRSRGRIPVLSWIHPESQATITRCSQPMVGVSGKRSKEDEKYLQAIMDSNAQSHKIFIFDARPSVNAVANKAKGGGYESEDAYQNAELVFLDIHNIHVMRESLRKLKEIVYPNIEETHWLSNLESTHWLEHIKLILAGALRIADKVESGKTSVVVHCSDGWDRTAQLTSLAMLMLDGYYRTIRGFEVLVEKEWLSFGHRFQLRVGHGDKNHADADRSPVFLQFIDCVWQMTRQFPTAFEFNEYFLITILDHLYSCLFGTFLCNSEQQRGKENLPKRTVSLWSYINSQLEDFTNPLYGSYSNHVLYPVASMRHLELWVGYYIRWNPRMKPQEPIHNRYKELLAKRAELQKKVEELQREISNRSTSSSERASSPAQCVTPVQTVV
UniProt Q96QG7: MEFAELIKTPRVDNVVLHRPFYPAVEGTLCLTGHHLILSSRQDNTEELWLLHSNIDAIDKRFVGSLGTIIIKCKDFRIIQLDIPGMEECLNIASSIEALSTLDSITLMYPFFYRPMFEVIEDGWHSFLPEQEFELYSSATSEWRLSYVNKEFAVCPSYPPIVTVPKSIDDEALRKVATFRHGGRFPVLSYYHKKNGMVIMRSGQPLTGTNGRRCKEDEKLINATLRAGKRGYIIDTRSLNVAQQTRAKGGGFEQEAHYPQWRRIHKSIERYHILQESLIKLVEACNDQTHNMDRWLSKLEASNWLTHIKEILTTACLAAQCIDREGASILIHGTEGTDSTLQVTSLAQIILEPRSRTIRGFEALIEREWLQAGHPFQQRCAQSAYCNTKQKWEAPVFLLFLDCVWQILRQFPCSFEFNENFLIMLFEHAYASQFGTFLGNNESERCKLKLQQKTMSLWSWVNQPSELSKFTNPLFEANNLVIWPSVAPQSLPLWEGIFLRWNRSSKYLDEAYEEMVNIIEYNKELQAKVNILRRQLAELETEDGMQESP
UniProt P12829: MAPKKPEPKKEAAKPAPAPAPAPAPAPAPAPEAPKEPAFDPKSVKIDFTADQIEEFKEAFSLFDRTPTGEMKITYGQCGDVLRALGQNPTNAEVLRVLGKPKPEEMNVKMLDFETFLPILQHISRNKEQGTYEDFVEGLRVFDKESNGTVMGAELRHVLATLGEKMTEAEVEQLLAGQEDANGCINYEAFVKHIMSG
UniProt P03928: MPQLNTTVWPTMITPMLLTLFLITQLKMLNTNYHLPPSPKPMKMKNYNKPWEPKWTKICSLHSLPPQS
UniProt Q99707: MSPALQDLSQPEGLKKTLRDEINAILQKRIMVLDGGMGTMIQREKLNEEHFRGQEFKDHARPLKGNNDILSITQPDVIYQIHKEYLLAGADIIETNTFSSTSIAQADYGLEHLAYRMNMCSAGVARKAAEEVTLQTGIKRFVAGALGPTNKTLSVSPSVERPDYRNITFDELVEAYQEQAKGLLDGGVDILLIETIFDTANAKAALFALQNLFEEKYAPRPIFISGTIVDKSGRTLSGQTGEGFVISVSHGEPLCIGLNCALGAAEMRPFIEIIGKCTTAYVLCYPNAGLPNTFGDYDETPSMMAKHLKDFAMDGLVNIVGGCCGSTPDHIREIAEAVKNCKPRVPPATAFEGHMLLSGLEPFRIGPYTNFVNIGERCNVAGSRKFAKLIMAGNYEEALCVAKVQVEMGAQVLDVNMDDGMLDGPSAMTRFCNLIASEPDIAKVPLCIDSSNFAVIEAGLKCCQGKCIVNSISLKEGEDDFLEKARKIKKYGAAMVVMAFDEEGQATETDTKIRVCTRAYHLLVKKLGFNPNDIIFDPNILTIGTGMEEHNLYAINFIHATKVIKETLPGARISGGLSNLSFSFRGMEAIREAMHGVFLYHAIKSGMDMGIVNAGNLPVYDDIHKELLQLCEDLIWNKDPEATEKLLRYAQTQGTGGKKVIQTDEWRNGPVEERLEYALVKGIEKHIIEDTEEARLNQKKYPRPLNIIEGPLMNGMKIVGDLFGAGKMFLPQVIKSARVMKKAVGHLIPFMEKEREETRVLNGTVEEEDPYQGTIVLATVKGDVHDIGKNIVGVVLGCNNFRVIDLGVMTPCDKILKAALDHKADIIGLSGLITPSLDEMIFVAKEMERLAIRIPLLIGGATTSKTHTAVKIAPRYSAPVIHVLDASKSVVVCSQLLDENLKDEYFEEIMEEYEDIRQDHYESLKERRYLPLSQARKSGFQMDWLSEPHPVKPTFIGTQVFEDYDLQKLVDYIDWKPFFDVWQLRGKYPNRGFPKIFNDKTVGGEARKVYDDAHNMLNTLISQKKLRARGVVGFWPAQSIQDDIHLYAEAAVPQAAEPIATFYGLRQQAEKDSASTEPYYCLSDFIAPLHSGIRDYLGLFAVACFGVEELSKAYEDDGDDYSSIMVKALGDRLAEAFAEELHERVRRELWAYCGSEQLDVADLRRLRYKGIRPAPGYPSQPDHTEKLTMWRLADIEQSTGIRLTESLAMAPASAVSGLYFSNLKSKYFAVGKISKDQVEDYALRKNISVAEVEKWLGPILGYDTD

Compound in this test: c1cn2cc(-c3ccc4cn[nH]c4c3)nc(Nc3ccc(N4CCOCC4)cc3)c2n1 [entospletinib]
Briefly: log2 fold change, soluble protein after heating vs DMSO (PISA); higher = thermal stabilisation; K562 cells, 10 uM, 30 min; active = over 0.2 and 3.5 SD of the protein, either way, in both replicates (recomputed). A digest of the protocol: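 Soluble protein was quantified by TMTpro 16plex LC-MS/MS after channel sums were equalised. It was obtained as the supernatant after 21,000xg for 90 min from pooled aliquots of K562 cells (2×10^6 cells/mL, 10 μM compound, 30 min) heated for 3 min across 48°C-58°C and extracted in PBS with 0.5% NP-40 at 4°C. Thermal stability values are relative to control samples and come from duplicates. They are given as log2 fold changes.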
On to MTDH (UniProt Q86UE4), for which the log2 fold change was inactive: 0.12.
Under MT1G (UniProt P13640) stands inactive: 0.042; under MRPL58 (UniProt Q14197), inactive: 0.04; under MTHFD2 (UniProt P13995), inactive: -0.002.
As to MSI2 (UniProt Q96DH6), the log2 fold change is inactive: 0.002.
MTA2 (UniProt O94776): the log2 fold change was inactive: 0.039.
On to MRTFA (UniProt Q969V6), for which the log2 fold change is inactive: 0.01.
In the case of MTMR1 (UniProt Q13613), the log2 fold change is inactive: 0.128.
MTRF1L (UniProt Q9UGC7): the log2 fold change was inactive: 0.145.
On to MTHFD1L (UniProt B7ZM99), for which the log2 fold change was inactive: 0.009.
Regarding MTHFR isoform 2 (UniProt P42898), the log2 fold change was inactive: 0.
With MYO6 isoform 6 (UniProt Q9UM54), the log2 fold change is inactive: -0.016.
Under MTX2 (UniProt O75431) stands inactive: 0.069; under MYDGF (UniProt Q969H8), inactive: 0.016; under MSI1 (UniProt O43347), inactive: 0.208.
Turning to MRPS11 (UniProt P82912), the log2 fold change was inactive: 0.02.
As to MT-ND6 (UniProt P03923), the log2 fold change was inactive: -0.049.
The same measure for MTCH2 (UniProt E9PIE4): inactive: -0.027; for MTFMT (UniProt Q96DP5): inactive: 0.091.
As for MVB12A (UniProt Q96EY5), the log2 fold change was inactive: 0.
The same measure for MTMR2 (UniProt Q13614): inactive: 0; for MTPN (UniProt P58546): inactive: 0.062; for MTMR9 (UniProt Q96QG7): inactive: 0.056.
As for MYL4 (UniProt P12829), the log2 fold change is inactive: -0.033.
Turning to MSMO1 (UniProt Q15800), the log2 fold change was inactive: 0.082.
Consider MT-ATP8 (UniProt P03928), for which the log2 fold change is inactive: 0.164.
Regarding MYL3 (UniProt P08590), the log2 fold change was inactive: 0.091.
Turning to MT1L (UniProt Q93083), the log2 fold change is inactive: 0.074.
Turning to MTR (UniProt Q99707), the log2 fold change is inactive: 0.145.
Consider MUC1, A0A087WWM1, for which the log2 fold change is inactive: 0.093.

For the origin of these results see the supplement of paper PMC10849652.
